Measurements published in paper PMC12040169 (PLOS Biology, 2025).
Some of the results follow.

What follows are compounds tested on T1, CTL2-GFP (C. trachomatis L2/434/Bu, GFP-expressing). Conditions: bulk GFP, single well; 28.5 h, 10 µM; inhibitor.
T1 construct: L2/434/Bu, GFP-expressing
Design: species or system HeLa; Intracellular C. trachomatis growth in HeLa cells, bulk GFP fluorescence relative to DMSO

Compound | % of control remaining [%]
CCOc1ccccc1N(CC(=O)Nc1ccc(C)cc1C)S(C)(=O)=O [CBK263799] | 115.477
O=C(O)c1ccc(NS(=O)(=O)c2cccs2)cc1O [CBK092145] | 160.968
O=C(COc1ccc2oc3ccccc3c2c1)c1ccccc1 [CBK268931] | 137.677
COc1cccc(CNC(C(=O)O)c2ccc3c(c2)OCO3)c1 (stereo not shown) [CBK015420D] | 28.0043
Cc1cccc(-c2nc(C3CCCNC3)n3ccccc23)c1 (stereo not shown) [CBK035528] | 103.54
COc1ccccc1-c1ccc(CC2(C(=O)NCCc3ccccc3)CCOCC2)cc1 [CBK286516] | 74.5367
O=C(C1=C(O)C(=O)N(CCCn2ccnc2)C1c1ccc(Br)cc1)c1ccc2c(c1)OCCO2 (stereo not shown) [CBK266081] | 174.64
c1nn(C2CCCCC2)cc1-c1cncn1CCCN1CCCCC1 [CBK281495] | 106.018
CCC(C)C(NC(=O)Cc1c[nH]c2ccccc12)C(=O)O (stereo not shown) [CBK286720] | 108.283
COc1cc(/C=N/Nc2nc(Nc3ccccc3)nc(Nc3ccccc3)n2)ccc1O [CBK262584] | 77.7949
NC(=O)c1ccc(NC(=O)CCCc2nc(-c3ccccc3Cl)no2)cc1 [CBK268932] | 108.921
Cc1ccc2nc(O)c(C3=NN(C(=O)CCC(=O)O)C(c4ccco4)C3)c(-c3ccccc3)c2c1 (stereo not shown) [CBK267544] | 145.732
COc1ccc(CNCc2ccc(Cl)cc2)cc1OC [CBK263315] | 124.515
Cc1onc(-c2ccccc2)c1CNC(=O)c1cscn1 [CBK144089] | 100.339
Cc1cccc(OC(C)C(=O)Nc2ccc(S(=O)(=O)N3CCOCC3)cc2)c1 (stereo not shown) [CBK269609] | 99.6246
CN(C)c1ncc(CNc2nc(O)c3c(n2)CCCC3)cn1 [CBK305460] | 148.477
CCOc1ccc(Cl)cc1CN(C)C(=O)NC(c1ncnn1C)C(C)C (stereo not shown) [CBK307110] | 155.08
COc1ccc(CCCNC(=N)N)cc1Cl [CBK261404G] | 77.6198
CC(Sc1nc(N)cc(N)n1)C(=O)c1ccc(F)c(F)c1 (stereo not shown) [CBK296928] | 96.534
Cc1csc2ncc(C(=O)Nc3ccc(OC(F)(F)F)cc3)c(=O)n12 [CBK287457] | 106.514
CCCC(=O)Nc1c(C)nn(C)c1N1CCNCC1 [CBK045924T] | 112.821
O=C(c1ccc(F)cc1)C1CCN(Cc2ncc[nH]2)CC1 [CBK149135] | 117.386
CC(C)[C@@H](CO)n1c(=O)[nH]c2ncc(-c3cccc4cccnc34)nc21 [CBK064848] | 142.503
Cc1cc(=O)c2ccccc2n1CC(=O)N1CCC2(CCOCC2)CC1 [CBK306869] | 103.345
Cc1cc(C(=O)NCCc2ccc(S(=O)(=O)NC(=O)NC3CCCCC3)cc2)n[nH]1 [CBK023997] | 141.81

Compound | % of control remaining [%]
O=C(Nc1ccc(OC(F)(F)F)cc1)c1cnc(-c2ccc(Cl)cc2)c(-c2ccc(O)cc2)c1 [CBK037485] | 138.167
COCCOc1nccnc1N1CCNCC1 [CBK001903G] | 124.066
Cc1nccn1CCN(C)C(=O)c1ccc2c(c1)ncn2C [CBK281993] | 100.535
NS(=O)(=O)c1ccc(NC(=O)C2CCCN(S(=O)(=O)c3ccc(Cl)cc3)C2)cc1 (stereo not shown) [CBK266813] | 151.785
O=C(Cc1csc(-c2ccc(Cl)cc2)n1)Nc1ccccn1 [CBK107364] | 128.017
CC(=O)Nc1ccc(Nc2cc(C)nc(-n3nc(C)cc3C)n2)cc1 [CBK287746] | 75.4017
Cc1ccc(S(=O)(=O)Nc2ccc(Nc3cc(-c4ccc(CNC(=O)OC(C)(C)C)cc4)ncn3)cc2)cc1 [CBK090967] | 178.916
COc1ccc(NC(=O)Nc2nn(Cc3ccc(Cl)cc3Cl)cc2Br)cc1OC [CBK266930] | 140.308
O=C(c1ccccc1)N1C[C@@H](c2ccsc2)[C@@H]2CN(Cc3cccc(Cl)c3)CC[C@@H]21 [CBK285603] | 94.9125
COc1cccc2cc(C(=O)N3CCN(CCO)CC3)c(=O)oc12 [CBK293932] | 176.594
CN1CCN(C(=O)CN(Cc2ccccc2)S(C)(=O)=O)CC1 [CBK265745] | 99.4835
CCc1c(C)nc2c(C(=O)N3CCOCC3)cnn2c1C [CBK162134] | 99.9437
CC1(C)[C@H]2CC[C@]1(C)[C@@H](OCCNc1ccccc1)C2 [CBK021967] | 116.044
Nn1c(COc2ccccc2)nnc1SCC(=O)c1ccc2c(c1)CCCC2 [CBK268466] | 85.3109
Nc1nc2c(ccn2[C@@H]2O[C@H](CO)[C@H](O)C2O)c(=O)[nH]1 (stereo partly shown) [CBK201190] | 146.553
O=[N+]([O-])c1ccc(N2CCN(S(=O)(=O)c3ccc4ccccc4c3)CC2)cc1NCc1ccco1 [CBK264417] | 123.54
Cc1cc(C)nc(N2CCC(CC(=O)N3CCCCC3CN3CCCC3)CC2)n1 (stereo not shown) [CBK286254] | 137.811
COc1ccc(S(=O)(=O)N2CCCCC2)cc1NC(=O)c1ccc(-c2nnn[nH]2)cc1 [CBK297128] | 154.844
Cc1cc(OC(F)(F)F)ccc1NS(=O)(=O)c1ccc(-c2ccon2)s1 [CBK062361] | 129.72
CC[C@H]1CN(C(=O)Nc2cccc(OC)c2)CC[C@H]1CC(=O)O [CBK288778] | 131.384
O=C(O)C(c1c[nH]c2ccc(OCc3ccccc3)cc12)N1CCCC1 (stereo not shown) [CBK286686] | 133.849
Cc1c(C(=O)N2CCCC(c3nc(C)n4ccsc34)C2)cnn1C (stereo not shown) [CBK284593] | 138.152
CC(C)(C)c1ccc(-c2cnc3nc(N)ccc3c2)cc1 [CBK061888] | 104.483
Cc1nn(C)c2ncc(S(=O)(=O)NC(C)c3ccc(F)cc3)cc12 (stereo not shown) [CBK305793] | 113.415
